Results are given in words; binding and its absence hold for the method and conditions named. Binding seen in cells or lysates may run through a third protein. Some results given as binding are weak or reduced against the parent protein; the word gives no strength. Tags and fused reporters may be left off the sequences shown.
T1: Myc-tagged human Insig1 (human) (UniProt O15503)
T1 sequence: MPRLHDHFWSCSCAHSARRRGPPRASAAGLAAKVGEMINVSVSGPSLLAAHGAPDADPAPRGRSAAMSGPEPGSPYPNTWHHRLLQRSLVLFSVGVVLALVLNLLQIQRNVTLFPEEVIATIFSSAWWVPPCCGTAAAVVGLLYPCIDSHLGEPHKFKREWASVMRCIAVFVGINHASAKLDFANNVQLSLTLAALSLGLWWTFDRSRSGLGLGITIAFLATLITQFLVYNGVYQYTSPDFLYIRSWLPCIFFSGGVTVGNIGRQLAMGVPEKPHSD

T2: HA-tagged hamster SCAP (hamster) (UniProt P97260)
T2 sequence: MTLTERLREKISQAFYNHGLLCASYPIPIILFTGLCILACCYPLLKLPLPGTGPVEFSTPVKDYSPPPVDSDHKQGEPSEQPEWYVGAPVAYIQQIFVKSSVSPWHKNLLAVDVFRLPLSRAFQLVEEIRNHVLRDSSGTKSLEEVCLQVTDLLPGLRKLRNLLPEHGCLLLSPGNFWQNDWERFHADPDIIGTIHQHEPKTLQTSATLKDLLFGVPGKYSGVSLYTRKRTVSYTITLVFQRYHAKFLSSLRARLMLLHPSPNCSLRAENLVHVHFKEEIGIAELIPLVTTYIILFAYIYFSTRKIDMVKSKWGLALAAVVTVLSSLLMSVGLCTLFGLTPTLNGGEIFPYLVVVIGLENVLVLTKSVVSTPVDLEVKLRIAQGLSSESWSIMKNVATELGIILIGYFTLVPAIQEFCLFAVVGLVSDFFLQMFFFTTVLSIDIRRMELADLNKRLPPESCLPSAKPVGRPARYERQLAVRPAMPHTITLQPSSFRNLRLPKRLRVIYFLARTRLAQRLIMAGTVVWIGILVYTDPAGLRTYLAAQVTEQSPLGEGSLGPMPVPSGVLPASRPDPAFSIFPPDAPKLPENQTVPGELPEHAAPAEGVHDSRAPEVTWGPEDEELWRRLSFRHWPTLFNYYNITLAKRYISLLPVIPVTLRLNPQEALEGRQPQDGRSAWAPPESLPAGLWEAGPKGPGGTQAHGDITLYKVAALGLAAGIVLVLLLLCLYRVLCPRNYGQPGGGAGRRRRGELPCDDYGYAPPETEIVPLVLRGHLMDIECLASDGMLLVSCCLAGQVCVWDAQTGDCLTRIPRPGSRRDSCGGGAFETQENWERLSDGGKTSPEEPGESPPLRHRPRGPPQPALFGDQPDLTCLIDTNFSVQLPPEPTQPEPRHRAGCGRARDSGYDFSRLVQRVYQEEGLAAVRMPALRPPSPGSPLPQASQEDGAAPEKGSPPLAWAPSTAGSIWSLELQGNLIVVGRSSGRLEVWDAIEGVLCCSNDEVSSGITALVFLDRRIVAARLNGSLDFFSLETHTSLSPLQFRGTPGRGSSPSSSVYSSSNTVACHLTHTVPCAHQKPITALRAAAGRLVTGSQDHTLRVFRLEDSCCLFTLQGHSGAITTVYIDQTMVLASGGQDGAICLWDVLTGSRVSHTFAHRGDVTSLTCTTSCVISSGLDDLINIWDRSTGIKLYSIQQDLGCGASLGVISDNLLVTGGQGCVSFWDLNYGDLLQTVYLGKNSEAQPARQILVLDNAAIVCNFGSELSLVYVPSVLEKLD

B1: V5-tagged human RHBDL4 (enzyme, UniProt Q8TEB9-1 1-315)
chain: MQRRSRGINTGLILLLSQIFHVGINNIPPVTLATLALNIWFFLNPQKPLYSSCLSVEKCYQQKDWQRLLLSPLHHADDWHLYFNMASMLWKGINLERRLGSRWFAYVITAFSVLTGVVYLLLQFAVAEFMDEPDFKRSCAVGFSGVLFALKVLNNHYCPGGFVNILGFPVPNRFACWVELVAIHLFSPGTSFAGHLAGILVGLMYTQGPLKKIMEACAGGFSSSVGYPGRQYYFNSSGSSGYQDYYPHGRPDHYEEAPRNYDTYTAGLSEEEQLERALQASLWDRGNTRNSPPPYGFHLSPEEMRRQRLHRFDSQ
B2: Myc-tagged human Insig1 (protein, UniProt O15503-1 1-277)
chain: T1 sequence

Legend:
[1] = target: T1, Myc-tagged human Insig1 (human); assay: co-IP
[2] = target: T2, HA-tagged hamster SCAP (hamster); assay: co-IP

Row | Binder | binding [1] | binding [2]
1 | B1 | binds | binds
2 | B2 |  | binds

Reference: publication doi:10.1101/2021.08.24.457590
